Counter-ions that a name gives are not always drawn. Some of these results come from one statement about several compounds together.
What follows are compounds tested against T1, TYK2 kinase domain (Homo sapiens, UniProt P29597) (assay: JAK1, JAK2 and TYK2 Inhibition Assay Protocol (Example A): TYK2 kinase domain, Caliper LabChip peptide phosphorylation).
T1 construct: The activity of the isolated JAK1, JAK2 or TYK2 kinase domain was measured
T1 sequence (P29597 897-1176 limits assumed): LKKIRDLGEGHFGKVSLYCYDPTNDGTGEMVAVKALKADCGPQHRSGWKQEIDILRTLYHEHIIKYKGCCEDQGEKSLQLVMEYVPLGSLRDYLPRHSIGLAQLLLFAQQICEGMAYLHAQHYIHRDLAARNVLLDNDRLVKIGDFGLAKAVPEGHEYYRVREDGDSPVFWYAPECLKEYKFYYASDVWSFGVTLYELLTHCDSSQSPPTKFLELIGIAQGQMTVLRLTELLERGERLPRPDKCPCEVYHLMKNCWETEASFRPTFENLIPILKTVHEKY
Format: biochemical

Ki, < 500 nM:
N#Cc1cc(N)cc(Cl)c1-n1cc2c(NC(=O)C3CC3)ncc(F)c2n1 [Example 131, N-(2-(4-amino-2-chloro-6-cyano-phenyl)-7-fluoro-2H-pyrazolo-[4,3-c]pyridin-4-yl)-cyclopropane-carboxamide]
Nc1cc(Cl)c(-n2cc3c(Nc4cc(N)ncn4)nccc3n2)c(Cl)c1 [Example 87, N4-(2-(4-amino-2,6-dichloro-phenyl)-2H-pyrazolo[4,3-c]pyridin-4-yl)pyrimidine-4,6-diamine]
Nc1cc(Cl)c(-n2cc3c(Nc4cc(CO)ncn4)ncc(F)c3n2)c(Cl)c1 [Example 129, {6-[2-(4-Amino-2,6-dichlorophenyl)-7-fluoro-2H-pyrazolo[4,3-c]pyridin-4-ylamino]-pyrimidin-4-yl}-methanol]
CC(O)c1cc(Nc2ncc(F)c3nn(-c4c(Cl)cc(C#N)cc4Cl)cc23)ncn1 (stereo not shown) [Example 116]
N#Cc1cc(Cl)c(-n2cc3c(Nc4cc(N)ncn4)ncc(F)c3n2)c(Cl)c1 [Example 34, 4-[4-(6-Amino-pyrimidin-4-ylamino)-7-fluoro-pyrazolo[4,3-c]pyridin-2-yl]-3,5-dichlorobenzonitrile.HCl]
COc1cc(Nc2nccc3nn(-c4c(Cl)cccc4Cl)cc23)ncn1 [Example 56, [2-(2,6-Dichlorophenyl)-2H-pyrazolo[4,3-c]pyridin-4-yl]-(6-methoxypyrimidin-4-yl)amine]
OCc1cc(Nc2nccc3nn(-c4c(Cl)cccc4Cl)cc23)ncn1 [Example 48, {6-[2-(2,6-Dichlorophenyl)-2H-pyrazolo[4,3-c]pyridin-4-ylamino]pyrimidin-4-yl}methanol]
Cn1cccc(Nc2nccc3nn(-c4c(F)ccc(F)c4Cl)cc23)c1=O [Example 84, 3-(2-(2-chloro-3,6-difluorophenyl)-2H-pyrazolo[4,3-c]pyridin-4-ylamino)-1-methylpyridin-2(1H)-one]
Fc1ccc(Nc2nccc3nn(-c4c(Cl)cccc4Cl)cc23)nc1 [Example 52, [2-(2,6-Dichlorophenyl)-2H-pyrazolo[4,3-c]pyridin-4-yl]-(5-fluoropyridin-2-yl)amine]
CNC(=O)Nc1nccc2nn(-c3c(Cl)cccc3Cl)cc12 [Example 7, 1-[2-(2,6-Dichlorophenyl)-2H-pyrazolo[4,3-c]pyridine-4-yl]-3-methylurea]
N#Cc1cc(Cl)c(-n2cc3c(Nc4cc(CN5CCC5)ncn4)nccc3n2)c(Cl)c1 [Example 22, 4-[4-(6-Azetidin-1-ylmethylpyrimidin-4-ylamino)pyrazolo[4,3-c]pyridin-2-yl]-3,5-dichlorobenzonitrile]
COC(=O)Nc1nccc2nn(-c3c(Cl)cccc3Cl)cc12 [Example 6, [2-(2,6-Dichlorophenyl)-2H-pyrazolo[4,3-c]pyridine-4-yl]carbamic acid methyl ester]
Cc1cc(Nc2ncc(F)c3nn(-c4c(Cl)cccc4C#N)cc23)nc(CO)n1 [Example 125, 3-Chloro-2-[7-fluoro-4-(2-hydroxymethyl-6-methylpyrimidin-4-ylamino)-pyrazolo[4,3-c]pyridin-2-yl]-benzonitrile]
OCc1cc(Nc2nccc3nn(-c4c(Cl)cc(F)cc4Cl)cc23)ncn1 [Example 28, {6-[2-(2,6-Dichloro-4-fluorophenyl)-2H-pyrazolo[4,3-c]pyridine-4-yl]-(4-methylpyridin-2-yl)}methanol]
Fc1cccc(Cl)c1-n1cc2c(Nc3ccc(C4CNC4)cn3)ncc(F)c2n1 [Example 150, (5-Azetidin-3-yl-pyridin-2-yl)-[2-(2-chloro-6-fluorophenyl)-7-fluoro-2H-pyrazolo[4,3-c]pyridin-4-yl]-amine•HCl]
Cc1cc(Nc2ncc(F)c3nn(-c4c(Cl)cccc4C#N)cc23)nc(C)n1 [Example 123, 3-Chloro-2-[4-(2,6-dimethylpyrimidin-4-ylamino)-7-fluoropyrazolo[4,3-c]pyridin-2-yl]benzonitrile]
N#Cc1cccc(F)c1-n1cc2c(Nc3cc(N)ncn3)ncc(F)c2n1 [Example 141, 2-[4-(6-Aminopyrimidin-4-ylamino)-7-fluoropyrazolo[4,3-c]pyridin-2-yl]-3-fluoro-benzonitrile•HCl]
N#Cc1cnc(Nc2cc(N)ncn2)c2cn(-c3c(Cl)cccc3Cl)nc12 [Example 40, 4-(6-Aminopyrimidin-4-ylamino)-2-(2,6-dichlorophenyl)-2H-pyrazolo[4,3-c]pyridine-7-carbonitrile]
Cc1cc(Nc2ncc(F)c3nn(-c4c(Cl)cc(CO)cc4Cl)cc23)ncn1 [Example 113, {3,5-Dichloro-4-[7-fluoro-4-(6-methylpyrimidin-4-ylamino)pyrazolo[4,3-c]pyridin-2-yl]phenyl}methanol hydrochloride salt]
N#Cc1cc(Cl)c(-n2cc3c(Nc4cc(N)ncn4)ncc(Cl)c3n2)c(Cl)c1 [Example 90, 4-[4-(6-Aminopyrimidin-4-ylamino)-7-chloropyrazolo[4,3-c]pyridin-2-yl]-3,5-dichlorobenzonitrile]
Nc1cc(Nc2ncc(Cl)c3nn(-c4c(Cl)cccc4Cl)cc23)ncn1 [Example 32, N-[7-Chloro-2-(2,6-dichlorophenyl)-2H-pyrazolo[4,3-c]pyridin-4-yl]-pyrimidine-4,6-diamine]
Cc1cc(Nc2nccc3nn(-c4c(Cl)cc(F)cc4Cl)cc23)ncn1 [Example 27, [2-(2,6-Dichloro-4-fluorophenyl)-2H-pyrazolo[4,3-c]pyridin-4-yl]-(6-methylpyrimidin-4-yl)amine]
Cc1cnc(Nc2nccc3nn(-c4c(Cl)cccc4Cl)cc23)cn1 [Example 58, [2-(2,6-Dichlorophenyl)-2H-pyrazolo[4,3-c]pyridin-4-yl]-(5-methylpyrazin-2-yl)amine]
N#Cc1cc(F)cc(Cl)c1-n1cc2c(Nc3cc(C4CC4)ncn3)ncc(F)c2n1 [Example 135, 3-Chloro-2-[4-(6-cyclopropyl-pyrimidin-4-ylamino)-7-fluoropyrazolo[4,3-c]pyridin-2-yl]-5-fluorobenzonitrile]
N#Cc1cccc(Cl)c1-n1cc2c(NC(=O)C3CC3)ncc(F)c2n1 [Example 122, N-(2-(2-chloro-6-cyanophenyl)-7-fluoro-2H-pyrazolo-[4,3-c]pyridin-4-yl)-cyclopropanecarboxamide]
OCc1cc(Nc2ncc(F)c3nn(-c4c(F)cccc4Cl)cc23)ncn1 [Example 146, {6-[2-(2-Chloro-6-fluorophenyl)-7-fluoro-2H-pyrazolo[4,3-c]pyridin-4-ylamino]pyrimidin-4-yl}methanol•HCl]
Cc1nc(N)cc(Nc2ncc(F)c3nn(-c4c(F)cccc4C#N)cc23)n1 [Example 142, 2-[4-(6-Amino-2-methylpyrimidin-4-ylamino)-7-fluoropyrazolo[4,3-c]pyridin-2-yl]-3-fluoro-benzonitrile•HCl]
Cc1nc(CO)cc(Nc2ncc(F)c3nn(-c4c(Cl)cccc4C#N)cc23)n1 [Example 126, 3-Chloro-2-[7-fluoro-4-(6-hydroxymethyl-2-methylpyrimidin-4-ylamino)-pyrazolo[4,3-c]pyridin-2-yl]-benzonitrile]
CS(=O)(=O)c1cc(Cl)c(-n2cc3c(Nc4cc(CO)ncn4)nccc3n2)c(Cl)c1 [Example 66, {6-[2-(2,6-Dichloro-4-methane-sulphonyl-phenyl)-2H-pyrazolo[4,3-c]pyridine-4-ylamino]pyrimidin-4-yl}methanol]
CC(=O)Nc1cc(Nc2ncc(F)c3nn(-c4c(Cl)cccc4C#N)cc23)ncn1 [Example 120, N-{6-[2-(2-Chloro-6-cyanophenyl)-7-fluoro-2H-pyrazolo[4,3-c]pyridin-4-ylamino]-pyrimidin-4-yl}-acetamide]
Cc1cc(Nc2nccc3nn(-c4c(Cl)cc(F)cc4Cl)cc23)nc(C)n1 [Example 75, [2-(2,6-dichloro-4-fluorophenyl)-2H-pyrazolo[4,3-c]pyridine-4-yl]-(2,6-dimethyl-pyrimidin-4-yl)amine]
CCc1cc(Nc2nccc3nn(-c4c(Cl)cc(C#N)cc4Cl)cc23)ncn1 [Example 70, 3,5-Dichloro-4-[4-(6-ethyl-pyrimidin-4-ylamino)-pyrazolo[4,3-c]pyridin-2-yl]-benzonitrile]
Clc1cccc(Cl)c1-n1cc2c(Nc3cc(N4CCOCC4)ncn3)nccc2n1 [Example 47, [2-(2,6-Dichlorophenyl)-2H-pyrazolo[4,3-c]pyridin-4-yl]-(6-morpholin-4-ylpyrimidin-4-yl)amine]
N#Cc1cccc(Cl)c1-n1cc2c(Nc3cc(C4CC4)ncn3)ncc(F)c2n1 [Example 127, 3-Chloro-2-[4-(6-cyclopropyl-pyrimidin-4-ylamino)-7-fluoropyrazolo[4,3-c]pyridin-2-yl]-benzonitrile]
Cc1cc(Nc2nccc3nn(-c4c(Cl)cc(S(C)(=O)=O)cc4Cl)cc23)nc(C)n1 [Example 18, [2-(2,6-Dichloro-4-methanesulfonylphenyl)-2H-pyrazolo[4,3-c]pyridin-4-yl]-(2,6-dimethylpyrimidin-4-yl)amine]
OCCN1CCN(c2cc(Nc3nccc4nn(-c5c(Cl)cccc5Cl)cc34)ncn2)CC1 [Example 49, 2-(4-(6-((2-(2,6-dichlorophenyl)-2H-pyrazolo[4,3-c]pyridin-4-yl)amino)-pyrimidin-4-yl)piperazin-1-yl)ethan-1-ol]
CC(O)c1cc(Nc2ncc(F)c3nn(-c4c(Cl)cccc4C#N)cc23)ncn1 (stereo not shown) [Example 96, 3-Chloro-2-{7-fluoro-4-[6-(1-hydroxyethyl)-pyrimidin-4-ylamino]-pyrazolo[4,3-c]pyridin-2-yl}-benzonitrile]

From US9309240B2, “Pyrazolopyridine compounds, compositions and methods of use” (F. HOFFMANN-LA ROCHE AG, priority 2010, dated 2016)
